Laboratory results published in paper PMC9192753.
Results are given in words; binding and its absence hold for the method and conditions named. Binding seen in cells or lysates may run through a third protein. Some results given as binding are weak or reduced against the parent protein; the word gives no strength. For some of these results: Where a sequence is shown, tags or fusion partners need not be part of it.

The chains behind the UniProt entries cited, without tags or fusion partners.
UniProt Q96Q05: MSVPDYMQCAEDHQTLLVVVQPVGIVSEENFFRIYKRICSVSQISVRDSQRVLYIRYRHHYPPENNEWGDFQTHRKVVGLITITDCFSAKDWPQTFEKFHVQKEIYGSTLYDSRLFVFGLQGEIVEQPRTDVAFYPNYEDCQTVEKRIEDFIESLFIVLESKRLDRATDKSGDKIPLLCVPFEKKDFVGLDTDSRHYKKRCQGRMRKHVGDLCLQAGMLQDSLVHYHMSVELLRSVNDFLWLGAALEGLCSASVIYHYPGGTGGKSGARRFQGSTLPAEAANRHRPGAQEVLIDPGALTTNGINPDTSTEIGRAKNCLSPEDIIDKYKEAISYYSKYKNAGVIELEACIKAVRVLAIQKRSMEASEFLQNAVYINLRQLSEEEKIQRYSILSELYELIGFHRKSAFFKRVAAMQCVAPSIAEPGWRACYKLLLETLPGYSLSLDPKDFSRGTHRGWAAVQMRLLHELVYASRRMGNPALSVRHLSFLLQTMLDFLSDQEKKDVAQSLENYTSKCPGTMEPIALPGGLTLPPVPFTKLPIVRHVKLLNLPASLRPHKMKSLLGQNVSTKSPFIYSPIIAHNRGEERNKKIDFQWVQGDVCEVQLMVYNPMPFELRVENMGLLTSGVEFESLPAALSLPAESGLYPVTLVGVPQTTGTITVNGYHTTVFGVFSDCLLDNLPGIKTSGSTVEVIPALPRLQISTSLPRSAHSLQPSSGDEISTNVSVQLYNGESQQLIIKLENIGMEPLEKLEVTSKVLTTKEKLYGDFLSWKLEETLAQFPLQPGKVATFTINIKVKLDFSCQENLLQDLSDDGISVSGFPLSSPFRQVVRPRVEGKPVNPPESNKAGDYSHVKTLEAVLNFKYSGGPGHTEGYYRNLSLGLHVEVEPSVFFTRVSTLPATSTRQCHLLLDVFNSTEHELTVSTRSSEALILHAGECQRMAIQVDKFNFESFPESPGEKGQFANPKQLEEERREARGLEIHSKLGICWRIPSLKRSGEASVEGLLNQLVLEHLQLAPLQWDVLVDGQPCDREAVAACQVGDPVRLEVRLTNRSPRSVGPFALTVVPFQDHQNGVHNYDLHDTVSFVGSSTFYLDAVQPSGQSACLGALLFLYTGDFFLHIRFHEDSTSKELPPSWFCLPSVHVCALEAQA

Experiments:
[1] = biological target: NIK- and IKK-β-binding protein (NIBP), endogenous (human (endogenous in HCT116 and RKO)) (UniProt Q96Q05); test: co-IP; endogenous RNF138 and NIBP, HCT116 total lysates and nuclear extracts; IgG as control
[2] = biological target: NIK- and IKK-β-binding protein (NIBP), endogenous (human (endogenous in HCT116 and RKO)) (UniProt Q96Q05); test: proximity ligation; endogenous RNF138 and NIBP in HCT116 and RKO cells, confocal images; IgG as controls
HA-NIBP = HA-NIBP (UniProt Q96Q05); test: co-IP; HA-NIBP with full-length or truncated Flag-RNF138 mutants in 293T cells

binding [1] | binding [2] | binding (HA-NIBP) | Binder
binds | binds |  | RING finger protein 138 (RNF138), endogenous (protein, UniProt Q8WVD3 1-245) MAEDLSAATSYTEDDFYCPVCQEVLKTPVRTTACQHVFCRKCFLTAMRESGAHCPLCRGNVTRRERACPERALDLENIMRKFSGSCRCCAKQIKFYRMRHHYKSCKKYQDEYGVSSIIPNFQISQDSVGNSNRSETSTSDNTETYQENTSSSGHPTFKCPLCQESNFTRQRLLDHCNSNHLFQIVPVTCPICVSLPWGDPSQITRNFVSHLNQRHQFDYGEFVNLQLDEETQYQTAVEESFQVNI
 |  | binds | Flag-RNF138 full-length (protein, UniProt Q8WVD3 1-245) MAEDLSAATSYTEDDFYCPVCQEVLKTPVRTTACQHVFCRKCFLTAMRESGAHCPLCRGNVTRRERACPERALDLENIMRKFSGSCRCCAKQIKFYRMRHHYKSCKKYQDEYGVSSIIPNFQISQDSVGNSNRSETSTSDNTETYQENTSSSGHPTFKCPLCQESNFTRQRLLDHCNSNHLFQIVPVTCPICVSLPWGDPSQITRNFVSHLNQRHQFDYGEFVNLQLDEETQYQTAVEESFQVNI
 |  | binds | Flag-RNF138 catalytic cysteines C/A mutant (C18A/C54A) (protein, UniProt Q8WVD3 1-245) MAEDLSAATSYTEDDFYAPVCQEVLKTPVRTTACQHVFCRKCFLTAMRESGAHAPLCRGNVTRRERACPERALDLENIMRKFSGSCRCCAKQIKFYRMRHHYKSCKKYQDEYGVSSIIPNFQISQDSVGNSNRSETSTSDNTETYQENTSSSGHPTFKCPLCQESNFTRQRLLDHCNSNHLFQIVPVTCPICVSLPWGDPSQITRNFVSHLNQRHQFDYGEFVNLQLDEETQYQTAVEESFQVNI
